Assay results published in doi:10.1101/2020.11.05.369280 (bioRxiv, 2020).
Read-outs that look alike come from different tables or passages of the source. No constants are given. Whether binding was seen depends on the method and setting. Some entries that bind do so weakly or less than the wild type.

The chains behind the UniProt entries cited, without tags or fusion partners. Residues count along the entry.
UniProt P02769, residues 25-607: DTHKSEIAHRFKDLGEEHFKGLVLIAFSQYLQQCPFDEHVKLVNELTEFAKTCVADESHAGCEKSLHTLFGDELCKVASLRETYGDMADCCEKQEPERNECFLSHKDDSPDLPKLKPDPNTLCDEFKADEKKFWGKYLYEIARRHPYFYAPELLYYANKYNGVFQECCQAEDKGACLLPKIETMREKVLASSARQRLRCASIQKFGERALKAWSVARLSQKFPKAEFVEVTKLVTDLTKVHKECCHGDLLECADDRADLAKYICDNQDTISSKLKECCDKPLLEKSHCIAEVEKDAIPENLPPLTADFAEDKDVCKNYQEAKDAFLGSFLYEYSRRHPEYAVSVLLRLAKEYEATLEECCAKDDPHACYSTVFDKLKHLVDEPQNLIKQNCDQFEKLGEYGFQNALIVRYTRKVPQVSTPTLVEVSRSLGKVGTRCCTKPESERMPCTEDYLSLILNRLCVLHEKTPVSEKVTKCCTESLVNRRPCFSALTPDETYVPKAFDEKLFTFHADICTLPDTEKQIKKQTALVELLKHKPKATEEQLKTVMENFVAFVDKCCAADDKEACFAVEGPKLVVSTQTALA
UniProt P69783, residues 2-169: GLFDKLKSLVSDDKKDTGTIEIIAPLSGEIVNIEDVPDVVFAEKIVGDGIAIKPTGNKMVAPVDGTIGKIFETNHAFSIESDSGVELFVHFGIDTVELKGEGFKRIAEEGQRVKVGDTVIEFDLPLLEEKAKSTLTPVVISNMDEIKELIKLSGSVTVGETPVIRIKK

Tests used:
Assay in all cases: cross-linking
[1] = target: bovine serum albumin (bovine) (UniProt P02769)
EIIA^Glc [2] = target: EIIA^Glc (UniProt P69783)
EIIA^Glc [3] = target: EIIA^Glc (UniProt P69783); remark: listed apart in the source
EIIA^Glc [4] = target: EIIA^Glc (UniProt P69783); remark: listed apart in the source

Molecule	binding [1]	binding (EIIA^Glc [2])	binding (EIIA^Glc [3])	binding (EIIA^Glc [4])
bovine serum albumin (from UniProt P02769 25-607)	no binding (condition: at pH 3.0)	–	–	–
EIIB^Glc (domain or fragment) EDATEDAKATGTSEMAPALVAAFGGKENITNLDACITRLRVSVADVSKVDQAGLKKLGAAGVVVAGSGVQAIFGTKSDNLKTEMDEYIRN	–	binds weakly	binds weakly	binds weakly
